{"source": "patent US20190055278", "about": "(published 2019)", "assay": "general procedure: Fmoc solid-phase peptide synthesis; CTC resin (1.6 mmol/g); DIPCDI (DIC)/HOBt", "conditions": "for crude HPLC purity / crude purity (method not given) / final HPLC purity: HPLC", "note": "Where “and” joins values, the source holds several entries; their conditions need not be identical. Identical values can stand only once.", "data": [{"substance": "Cys-Cys-Glu^-Tyr^-Cys^-Cys^-Asn^-Pro^-Ala^-Cys^-Thr^-Gly^-Cys^-Tyr", "values": [{"measurement": "oxidative folding yield", "setting": "oxidative folding step", "value": ">50% and 83.2%"}, {"measurement": "crude HPLC purity", "setting": "oxidative folding step, run 1", "value": "˜40-50%"}, {"measurement": "crude purity (method not given)", "setting": "oxidative folding step, run 1", "value": 60, "unit": "%"}, {"measurement": "final HPLC purity", "setting": "oxidative folding step, run 1", "value": ">99.0", "unit": "%"}, {"measurement": "crude HPLC purity", "setting": "oxidative folding step, run 2", "value": "˜60-70%"}, {"measurement": "crude purity (method not given)", "setting": "oxidative folding step, run 2", "value": 69.17, "unit": "%"}, {"measurement": "final HPLC purity", "setting": "oxidative folding step, run 2", "value": ">99", "unit": "%"}]}, {"substance": "H-Cys(Phacm)-Cys(Phacm)-Glu-Tyr-Cys(Phacm)-Cys(Phacm)-Asn-Pro-Ala-Cys(Phacm)-Thr-Gly-Cys(Phacm)-Tyr-OH.TFA", "values": [{"measurement": "crude purity (method not given)", "setting": "whole synthesis", "value": 43.47, "unit": "%"}]}]}
